PubChem BioAssay AID1259300 | Sanger Institute | 2017
In all, the deposit lists 794 reagents; shown is a part drawn at random. In the full data, 18 (2.3%) were called active. 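Calls rest on knock-down alone, not drug synergy; depositor treated synergy scores above 0.15 as synergistic; drug doses alone had little viability effect.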 No viability above 1 is reported: the scale is capped. Further read-outs or replicates are left out here. No sequences are given here. The record does not give: the amount of reagent, the time to read-out.

Assay: 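Which knock-downs harm HCT15 alone or synergise with the drugs BYL719, cetuximab or trametinib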 (primary screen)
Cells: HCT15 colorectal cancer cells
Knock-down reagent: siRNA pool against human genes
Treatment: anchor drug or DMSO vehicle added 24 h after seeding: BYL719 1 µM, cetuximab 5 µg/ml, trametinib 10 nM; drug doses chosen to barely affect viability alone
Read-out: 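Replicate-mean viability relative to non-targeting pool control with robust z-score for knock-down without drug; per-drug synergy scores for BYL719 (1 µM), cetuximab (5 µg/ml), trametinib (10 nM)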
Reading the numbers: viability z-score, siRNA alone: higher = more viable cells after knock-down; viability vs non-targeting, siRNA alone: higher = more viable cells
Hit rule: 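a knock-down without drug that drives the robust viability z-score under -3 is active, i.e. essential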
Meaning of the calls: active = essential: knock-down alone lowers viability (z below -3); inactive = no strong viability loss with knock-down alone

target gene	viability z-score, siRNA alone	viability vs non-targeting, siRNA alone	outcome
CIB2 (calcium and integrin binding family member 2)	-1.14	0.872	inactive
APC (APC regulator of Wnt signaling pathway)	-1.26	0.863	inactive
CLK4 (CDC like kinase 4)	0.467	0.989	inactive
MED24 (mediator complex subunit 24)	0.625	1	inactive
CERK (ceramide kinase)	0.625	1	inactive
PHKG2 (phosphorylase kinase catalytic subunit gamma 2)	0.625	1	inactive
STK38L (serine/threonine kinase 38 like)	0.625	1	inactive
PASK (PAS domain containing serine/threonine kinase)	-0.088	0.948	inactive
COMMD3 (COMM domain containing 3)	-0.386	0.926	inactive
SMAD4 (SMAD family member 4)	0.35	0.98	inactive
TRIB1 (tribbles pseudokinase 1)	-0.257	0.936	inactive
COASY (Coenzyme A synthase)	-1.87	0.818	inactive
RIOK3 (RIO kinase 3)	-0.176	0.942	inactive
DYRK2 (dual specificity tyrosine phosphorylation regulated kinase 2)	0.625	1	inactive
PKMYT1 (protein kinase, membrane associated tyrosine/threonine 1)	0.233	0.972	inactive
FXR1 (FMR1 autosomal homolog 1)	0.625	1	inactive
OBSCN	0.625	1	inactive
CNOT1 (CCR4-NOT transcription complex subunit 1)	-0.215	0.939	inactive
CDADC1 (cytidine and dCMP deaminase domain containing 1)	-0.0512	0.951	inactive
TWF1 (twinfilin actin binding protein 1)	0.625	1	inactive

Reprinted from above (3 entries):
target gene	viability z-score, siRNA alone	viability vs non-targeting, siRNA alone	outcome
PKMYT1 (protein kinase, membrane associated tyrosine/threonine 1)	0.233	0.972	inactive
FXR1 (FMR1 autosomal homolog 1)	0.625	1	inactive
OBSCN	0.625	1	inactive
